Test results: PubChem BioAssay AID1259415 (National Center for Advancing Translational Sciences (NCATS), 2018)
About 18,000 (4.4%) of roughly 410,000 compounds were called active. Inconclusive results, whose numbers are uncertain, are shown with a selection of clear calls. Rule as the data show it: active = activity change below about -60%; inconclusive = no clear call, values can overlap the other calls; inactive = above about -39%.

experiment: qHTS Assay for inhibitors of the human cytomegalovirus (HCMV); conditions: HFF cells, HCMV-luciferase reporter, 72 h; at 57.5 µM; stronger effect = lower value
Summary of the method: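 Luciferase read-out from HCMV-luciferase-infected HFFs (MOI 1 PFU/cell) 72 h post infection at 37C; compounds added after 16 h cell attachment; activity normalized between buffer-only basal and Salinomycin (10uM) inhibitor controls.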
% is scaled to controls: 0 for no effect and ±100 for the full control effect.

Compound	activity change, negative = inhibition
CCS(=O)(=O)N1CCC(c2nc(-c3ccc(C(F)(F)F)cc3)no2)CC1	inconclusive: -45.7%
COc1cccc(-c2nc(SC)nc3sc(C(=O)NC(C)(C)C)c(N)c23)c1	inconclusive: -48.3%
CC1CN(C(=O)CCC(=O)NCc2ccc(Cl)cc2)c2ccccc2S1 (stereo not drawn)	inactive: 2.3%
COc1ccc(N2CCN(C(=O)CN3C(=O)CSc4c3c(C)nn4-c3ccccc3)CC2)cc1	inactive: -0.795%
O=C(OCc1csc(-c2ccccc2)n1)c1cccs1	inactive: 45.5%
COc1ccc(N2C[C@H](CSC)[C@@H](CC(=O)Nc3ccccc3)C2=O)cc1	inactive: 3.21%
O=C(/C=C/c1ccc(F)cc1)NCC1(c2ccccc2)CCOCC1	inconclusive: -49.1%
COc1ccc(NS(=O)(=O)c2cc(NC(=O)c3ccc(S(=O)(=O)N(C)C)cc3)ccc2N2CCOCC2)cc1	inconclusive: -46.9%
Nc1nc(N)c2nc(-c3ccccc3)c(N)nc2n1	inconclusive: -57.7%
CC(NS(=O)(=O)c1cccc(Cl)c1F)[C@H](O)c1ccccc1 (stereo partly drawn)	inactive: -16.8%
O=C(Cc1c[nH]c2ccccc12)NNCc1ccc(N(CCCl)CCCl)cc1	inconclusive: -50.6%
CC(C)CCNC(=O)c1ccc2c(c1)N(Cc1cccc(Cl)c1)C(=O)c1ccccc1S2	inconclusive: -43.4%
COc1ccccc1OC(=O)c1ccc(SC)cc1OC	inactive: -14.8%
Cc1ccnc(NC(=O)C2CC(=O)N(c3ccc4c(c3)OCCO4)C2)c1 (stereo not drawn)	inactive: 78.5%
c1ccc2c(c1)nnn2Cc1nnc2sc(-c3ccncc3)nn12	inconclusive: -45.3%
C/C=C(\C)CN1CCC(n2nccc2NC(=O)CCc2ccccc2)CC1	inconclusive: -55.1%
Cc1ccc(OCC(=O)Nc2nnn(C)n2)c(C)c1	inactive: 13.7%
Cc1[nH][nH]c(=O)c1C(c1ccc(-c2ccc(Cl)c(Cl)c2)o1)c1c(C)[nH][nH]c1=O	inconclusive: -40.8%
CCOc1ccc(CN2CCN(C/C=C/c3ccc(OC)cc3)CC2CCO)cc1 (stereo not drawn)	inactive: -17.9%
CCOCCCn1c(=S)[nH]c2cc(C(=O)N3CCC(C(N)=O)CC3)ccc2c1=O	inconclusive: -44.6%
CCc1ccc(CN2CCC(Oc3ccc(C(=O)N4CCCCC4)cc3)CC2)cc1	inconclusive: -43.2%

Compound	activity change, negative = inhibition
Cc1ccc(C(OCCN(C)C)c2cccc(C(F)(F)F)c2)cc1 (stereo not drawn)	inconclusive: -44.7%
Cc1nc2ccccc2c(=O)n1NC(=O)/C=C/c1ccccc1	inconclusive: -48.9%
CN(CCc1ccccc1)C(=O)c1cccc(NC(=O)Cc2cccc(NC(=O)C3CCCN(C(=O)CCc4ccccc4)C3)c2)c1 (stereo not drawn)	inconclusive: -45.4%
CCn1nc(C)c2c(-c3ccccc3)cc(=O)n(C(C)C(=O)NCc3cccc(OC)c3)c21 (stereo not drawn)	inactive: 2.38%
CCC1CCCCN1CCCNC(=O)c1ccc2c(c1)N(Cc1ccccc1)C(=O)c1ccccc1S2(=O)=O (stereo not drawn)	inconclusive: -49.2%
CCN(CC)c1ccc(CN(C(=O)Cc2coc3ccc(C)cc23)C2CCS(=O)(=O)C2)cc1 (stereo not drawn)	inactive: 10.2%
CC(=O)Nc1ccc(S(=O)(=O)N2CCN(CCCOc3ccccc3Cl)CC2)cc1	active: -67.2%
COc1ccc(-c2c(C#Cc3ccsc3)c3cc(-c4ccc(C(N)=O)cc4)ccc3n2C)cc1	inconclusive: -51.1%
c1ccn2cc(-c3ccc4c(c3)OCCO4)nc2c1	inconclusive: -54%
O=C(CC1SC(=Nc2ccccc2)N(CCc2c[nH]c3ccccc23)C1=O)Nc1ccccc1F (stereo not drawn)	inactive: -5.95%
O=C(CSc1nc2ccccc2c(=O)n1-c1cccc(C(F)(F)F)c1)NC1CC1	inconclusive: -46.9%
Cc1cc(C)cc(C(=O)Nc2ccc(NC(=O)Cc3ccccc3)cc2)c1	inconclusive: -56%
Cc1ccc(C(=O)O/N=C(\N)c2ccc(Br)cc2)cc1C	inactive: 115%
CCOC(=O)c1sc(NC(=O)CSc2nnnn2-c2ccccc2)nc1C	inconclusive: -45.3%
CO/N=C/CC(=O)c1cnc(-c2ccccc2)s1	inconclusive: -42.7%
O=S(=O)(c1ccc(-c2csc(-c3cccnc3)n2)cc1)N1CCCC1	inconclusive: -45.1%
CC(NS(=O)(=O)/C=C/c1ccccc1)C(=O)O (stereo not drawn)	inconclusive: -58.6%
Cc1ccc(C(=O)OCC(=O)Nc2sccc2C(N)=O)cc1NC(=O)c1ccco1	inconclusive: -58.5%
C=CCC[C@H](Cc1ccc(F)cc1)C(=O)OC[C@@H](NC(=O)[C@@H](CC=C)CC(=O)N[C@@H](CO)Cc1ccccc1)C(C)(C)C	inactive: 60.6%
Cc1ccc2cc(CCNC(=O)c3ccc(S(=O)(=O)N4CCCCC4)cc3)c(=O)[nH]c2c1	inconclusive: -43.7%
COc1ccc(OC)c(/C=C/c2ccc3cccc(O)c3n2)c1	active: -65.4%

Compound	activity change, negative = inhibition
O=C(N/N=C/c1ccc(O)c(O)c1)N/N=C/c1ccc(O)c(O)c1	inactive: 20.4%
O=C(Nc1ccc(OCc2cc(=O)n3c4c(sc3n2)CCCC4)cc1)c1ccccc1	active: -105%
CC1CCc2nc3ncn(Cc4ccccc4F)c(=O)c3cc2C1 (stereo not drawn)	inactive: 38.3%
O=C(NCC(c1cccs1)N1CCOCC1)c1ccc(Cl)nc1 (stereo not drawn)	inactive: -27.5%
CCC(Sc1nc2n[nH]c(C)c2c(=N)n1-c1cccc(Cl)c1C)C(=O)N(CC)CC (stereo not drawn)	inconclusive: -59.7%
Cc1ccc(NC(=S)N2CCC(c3nc4ccccc4s3)CC2)cc1C	active: -89.7%
COc1cccc2cc(C(=O)N(Cc3cccs3)CC3CCCO3)c(=O)oc12 (stereo not drawn)	inconclusive: -44.5%
C=CCNC(=S)Nc1cccc(NC(=S)NCC=C)c1	inconclusive: -40.2%
O=C(CCl)NCCN1C(=O)S/C(=C\c2cccnc2)C1=O	active: -77%
CCNC(=S)N1CCN(c2nc(CC)nc3sc4c(c23)CCCC4)CC1	inconclusive: -59.9%
CCN(CC)S(=O)(=O)c1ccc2oc(SCc3ccc(F)cc3)nc2c1	inconclusive: -42.2%
O=C(O)/C=C/C(=O)NC1CCC(CC2CCC(NC(=O)/C=C/C(=O)O)CC2)CC1 (stereo not drawn)	inconclusive: -46.5%
CCOc1ccc(-c2cc3c(=O)n(CC(=O)NCc4ccc(Cl)cc4)ccn3n2)cc1	inactive: 24.7%
Cc1noc(C)c1COc1ccc(C(=O)Nc2ccccc2)cc1	inconclusive: -40%
Cc1ccc([N+](=O)[O-])cc1S(=O)(=O)Nc1ccc(C(=O)NCc2ccccn2)cc1	inactive: 13.6%
C=CCn1c(Cc2ccccc2)nc2c(cnn2-c2ccccc2)c1=O	inconclusive: -51.8%
CCn1ncc(/C=N/O)c1C	inconclusive: -57.6%
CN(C)S(=O)(=O)c1ccc(C(=O)NNc2nc(-c3ccccc3)c3cc(Br)ccc3n2)cc1	inconclusive: -41.2%
Clc1ccc(OCc2nnc(SCc3nc4ccccc4[nH]3)n2Cc2ccco2)cc1	active: -80.4%
CCn1ccnc1CN(C)Cc1cn[nH]c1-c1ccc(F)cc1F	inconclusive: -53.2%
CCOc1ncccc1C(=O)OCC(=O)Nc1ccc(Cl)cn1	inconclusive: -46.8%

Retrieved one by one from above, three records:
Compound	activity change, negative = inhibition
O=C(N/N=C/c1ccc(O)c(O)c1)N/N=C/c1ccc(O)c(O)c1	inactive: 20.4%
CCC(Sc1nc2n[nH]c(C)c2c(=N)n1-c1cccc(Cl)c1C)C(=O)N(CC)CC (stereo not drawn)	inconclusive: -59.7%
O=C(NCC(c1cccs1)N1CCOCC1)c1ccc(Cl)nc1 (stereo not drawn)	inactive: -27.5%

Later entries:

Compound	activity change, negative = inhibition
COc1ccccc1NS(=O)(=O)c1ccc2oc(SC(C)C(=O)N3CCNC3=O)nc2c1 (stereo not drawn)	inactive: -7.12%
CCC(=O)N1CCc2cc(S(=O)(=O)CCC(=O)N(C)c3ccc(OC)cc3OC)ccc21	inconclusive: -40.8%
Nc1nonc1-n1nnc(C(=O)N/N=C/c2ccncc2)c1-c1ccccc1	inactive: -14.2%
Cc1c(NC(=O)C(C)OC(=O)c2cccnc2Cl)c(=O)n(-c2ccccc2)n1C (stereo not drawn)	inconclusive: -40.4%
CCOC(=O)C1CCCN(Cc2nc(N)nc(Nc3ccc(Cl)cc3)n2)C1 (stereo not drawn)	inconclusive: -41.8%
COc1ccc(Cl)cc1NC(=O)Cn1c(=O)n(CCC(=O)NCc2ccc3c(c2)OCO3)c(=O)c2ccccc21	active: -63.7%
O=C(CC1C(=O)NCCN1CC(c1ccccc1)c1ccccc1)NCCc1cn[nH]c1 (stereo not drawn)	inactive: -37.4%
COc1cc2c(cc1NC(=O)c1cccc(S(=O)(=O)N(C)C)c1)oc1ccccc12	inactive: -22.9%
O=S(=O)(c1ccc(Cl)cc1)N1CCCCC1c1cccnc1 (stereo not drawn)	inconclusive: -41.8%
COc1ccc(CNC(=O)c2ccc(=O)oc2)cc1OC	inconclusive: -52.4%
CCOC(=O)c1c(C)nc2c(c1-c1ccccc1)C(=O)c1ccccc1-2	active: -101%
CCOc1ccc(/C(C)=N/N2C(=O)C(CC(=O)Nc3ccc(OC)cc3[N+](=O)[O-])SC2=Nc2cccc(C)c2C)cc1 (stereo not drawn)	inconclusive: -40.7%
COc1cccc(-n2c(SCC(=O)c3ccc(Cl)cc3)nc3c([nH]c4ccccc43)c2=O)c1	inconclusive: -59.6%
O=C1C2C3C=CC(C3)C2S(=O)(=O)C2C3C=CC(C3)C12 (stereo not drawn)	inactive: -5.53%
CSc1ccc(CNC(=O)c2ccc(NC(=O)c3nsc4ccccc34)cc2)cc1	active: -95.6%
CC(Oc1ccc(Cl)cc1Cl)C(=O)Nc1ncccn1 (stereo not drawn)	inactive: -6.49%
CCCn1c(SCC(=O)Nc2ccc(S(=O)(=O)N(C)C)cc2)n[nH]c1=O	inconclusive: -40.4%
O=C(Cc1ccc(Br)cc1)Nc1ncc([N+](=O)[O-])s1	inconclusive: -52.7%
CN(C)C(CNC(=O)c1cccc(S(=O)(=O)N2CCN(c3ccc(F)cc3)CC2)c1)c1ccccc1 (stereo not drawn)	inconclusive: -44.4%
Cc1ccc(-n2c(N)c(C(=O)Nc3c(C)n(C)n(-c4ccccc4)c3=O)c3nc4ccccc4nc32)cc1	inconclusive: -41.7%
